Counter-ions that a name gives are not always drawn.
Assay: Dissolution in 500 mL deionized water at 37° C., 50-rpm paddle, UV analysis
Assay type: physicochemical
Settings: IR layer of Example 1 tablet, deionized water 37° C., UV 232 nm

Structure (SMILES): O=C(O)COCCN1CCN(C(c2ccccc2)c2ccc(Cl)cc2)CC1 (stereo not shown) [cetirizine, cetirizine HCl]
- time for all cetirizine to dissolve: one

— patent US20030143272A1, “Pharmaceutical tablet and process for making thereof” (priority 2001, published 2003)
